In the assay the test system is P388 leukemia ip, CD2F1 mice, survival T/C. Kind of assay: NCI In Vivo Anticancer Drug Screen. Data for tumor model P388 Leukemia (intraperitoneal) in CD2F1 (CDF1) mice. To be noted: T/C endpoint: median survival time, higher T/C = longer survival.
Where [1] appears, read: dose: 50.0 mg/kg/injection, schedule: Q01DX009 (ip), vehicle: saline with Tween-80.
[2] abbreviates: dose: 50.0 mg/kg/injection, schedule: Q01DX009 (ip), vehicle: saline.
Where [3] appears, read: dose: 200.0 mg/kg/injection, schedule: Q01DX009 (ip), vehicle: saline with Tween-80.
The mark [4] stands for this setting: dose: 200.0 mg/kg/injection, schedule: Q01DX009 (ip), vehicle: Klucel (hydroxypropylcellulose) (HPC).
[5] abbreviates: dose: 100.0 mg/kg/injection, schedule: Q01DX009 (ip), vehicle: Klucel (hydroxypropylcellulose) (HPC).
Where [6] appears, read: dose: 100.0 mg/kg/injection, schedule: Q04DX003 (ip), vehicle: saline with Tween-80.
[7] abbreviates: dose: 200.0 mg/kg/injection, schedule: Q01DX009 (ip), vehicle: saline.
[8] abbreviates: dose: 6.25 mg/kg/injection, schedule: Q01DX009 (ip), vehicle: saline.
[9] abbreviates: dose: 12.5 mg/kg/injection, schedule: Q01DX009 (ip), vehicle: saline.
Setting [10] is: dose: 25.0 mg/kg/injection, schedule: Q01DX009 (ip), vehicle: saline.

The structures appear in SMILES notation. The list does not hold the whole screen: it is rich in T/C values a quarter to a half above the control, in often repeated tests (any T/C) and in doses without a T/C. Further doses and runs are listed elsewhere. T/C: endpoint of the treated group in % of that of the vehicle group. Some doses have a count of surviving animals in place of a T/C: the source holds a T/C of zero for them, seemingly a mark for toxic or unscored doses. Some doses without a T/C left all or most animals alive at the check, yet need not have been tolerated: survival well below the control is almost never listed, so the zero probably covers shortened survival too. Counts of survivors are from the toxicity check (mostly the fifth day) where no day follows; animals may have died later. Schedule codes are those of the source, read here as Q, the interval in days (D) or hours (H), X, the number of doses. Some entries hold several experiments; the results are listed from low to high. Some molecules as drawn cover several salts, stereoisomers or complexes of the source; a dose is that of the sample tested. Where survival is the endpoint, this PubChem deposit counts one and a half times the control or more as active, and values a quarter to a half above the control carry no call in these data; other NCI protocols may use other cut-offs. Some T/C values carry the count of animals alive at the toxicity check (mostly the fifth day); without a count, all were alive then.

For the molecule `CN(C)CCc1ccccn1`, the survivor count is, setting by setting: (dose: 100.0 mg/kg/injection, schedule: Q04DX003 (ip), vehicle: saline) 4 of 6; (dose: 200.0 mg/kg/injection, schedule: Q04DX003 (ip), vehicle: saline) 2 of 6; (dose: 400.0 mg/kg/injection, schedule: Q04DX003 (ip), vehicle: saline) 0 of 6.
On to `NNc1ncnc2nc[nH]c12`, for which the survivor count is reported as 2 of 6 under setting [1]; 4 of 6 under setting [2]; 0 of 6 (dose: 100.0 mg/kg/injection, schedule: Q01DX009 (ip), vehicle: saline with Tween-80); 0 of 6 under setting [3]; 0 of 6 (dose: 400.0 mg/kg/injection, schedule: Q04DX003 (ip), vehicle: saline sonified).
Turning to `O=C1C2C3C=CC(C3)C2C(=O)N1CNc1ccc2nc(SC3CCCC3)sc2c1` (stereo unspecified), the survivor count under setting [4] was 6 of 6.
Take `COC(C)(C)[CH]([Hg][Cl])n1ccccc1=O` (stereo unspecified): the survivor count is, setting by setting: (dose: 50.0 mg/kg/injection, schedule: Q04DX003 (ip), vehicle: Klucel (hydroxypropylcellulose) (HPC)) 0 of 6; (dose: 100.0 mg/kg/injection, schedule: Q04DX003 (ip), vehicle: Klucel (hydroxypropylcellulose) (HPC)) 0 of 6; (dose: 200.0 mg/kg/injection, schedule: Q04DX003 (ip), vehicle: Klucel (hydroxypropylcellulose) (HPC)) 0 of 6; (dose: 400.0 mg/kg/injection, schedule: Q04DX003 (ip), vehicle: Klucel (hydroxypropylcellulose) (HPC)) 0 of 6.
On to `CC(C)CC(NC(=O)OCC1c2ccccc2-c2ccccc21)C(=O)O` (stereo unspecified), for which the survivor count (dose: 200.0 mg/kg/injection, schedule: Q01DX005 (ip), vehicle: Klucel (hydroxypropylcellulose) (HPC)) was 1 of 6.
Consider `COc1cc(/C=C/C2=C(C)C(=O)CC(c3cc(OC)cc(OC)c3)C2C)cc(OC)c1` (stereo unspecified), for which the survivor count (dose: 75.0 mg/kg/injection, schedule: Q04DX003 (ip), vehicle: Klucel (hydroxypropylcellulose) (HPC)) is listed as 6 of 6; the survivor count (dose: 150.0 mg/kg/injection, schedule: Q04DX003 (ip), vehicle: Klucel (hydroxypropylcellulose) (HPC)) is 6 of 6; the survivor count (dose: 300.0 mg/kg/injection, schedule: Q04DX003 (ip), vehicle: Klucel (hydroxypropylcellulose) (HPC)) was 6 of 6.
In the case of `C=C1C(=O)C23C(OC(=O)CCCCCCCCCCCCC)C1CCC2C12COC3(O)C(O)C1C(C)(C)CCC2O` (stereo unspecified), the survivor count (dose: 30.0 mg/kg/injection, schedule: Q01DX009 (ip), vehicle: saline with Tween-80) is on record as 5 of 6.
`N#CSc1ccc2nc(N)sc2c1`: the survivor count by setting is: (dose: 50.0 mg/kg/injection, schedule: Q01DX009 (ip), vehicle: Klucel (hydroxypropylcellulose) (HPC)) 6 of 6; under setting [5], 0 of 6; under setting [4], 0 of 6.
For `Nc1nc2ncn(O)c2c(=O)[nH]1`, the T/C reads like this: (dose: 6.25 mg/kg/injection, schedule: Q01DX005 (ip), vehicle: water) 130 % of control; (dose: 12.5 mg/kg/injection, schedule: Q01DX005 (ip), vehicle: water) 130 and 145 % of control; (dose: 25.0 mg/kg/injection, schedule: Q01DX005 (ip), vehicle: water) 126 and 142 % of control. Besides, where the note is “dose: 50.0 mg/kg/injection, schedule: Q01DX005 (ip), vehicle: water”, the survivor count was 0 of 6 and 5 of 6.
With `N#Cc1cnc(N)c(C#N)c1`, the survivor count runs as follows: under setting [5], 0 of 6; under setting [4], 0 of 6.
For the molecule `CC1C(=O)c2cc3c(cc2CCN(C)Cc2c1ccc1c2OCO1)OCO3` (stereo unspecified), the survivor count reads like this: (dose: 20.0 mg/kg/injection, schedule: Q01DX009 (ip), vehicle: saline with Tween-80) 2 of 6; (dose: 25.0 mg/kg/injection, schedule: Q01DX009 (ip), vehicle: saline with Tween-80) 6 of 6; (dose: 40.0 mg/kg/injection, schedule: Q01DX009 (ip), vehicle: saline with Tween-80) 0 of 6; under setting [6], 3 of 6.
Consider `COc1cc(C=Nc2ccc(Cl)cc2)ccc1N(CCCl)CCCl`, for which the T/C runs as follows: (dose: 1.25 mg/kg/injection, schedule: Q01DX009 (ip), vehicle: saline with Tween-80) 133 % of control; (dose: 1.5 mg/kg/injection, schedule: Q01DX009 (ip), vehicle: saline with Tween-80) 131 % of control; under setting [6], 145 % of control [5 of 6 alive]. Besides, the survivor count (dose: 200.0 mg/kg/injection, schedule: Q04DX003 (ip), vehicle: saline with Tween-80) is on record as 3 of 6.
As for `Cc1cc2nc3c(=O)[nH]c(=O)nc-3n(CC(O)C(O)C(O)CO)c2cc1C` (stereo unspecified), the survivor count under setting [3] was 4 of 6 and 6 of 6.
Regarding `Nc1c(Br)cc(Br)c2[nH]c(=O)c3ccccc3c12`, the survivor count (dose: 240.0 mg/kg/injection, schedule: Q01DX005 (ip), vehicle: saline with Tween-80) is 4 of 6.
Consider `CO[C@H]1/C=C/O[C@@]2(C)Oc3c(C)c(O)c4c(O)c(c(/C=N/N5CCN(C)CC5)c(O)c4c3C2=O)NC(=O)/C(C)=C\C=C\[C@H](C)[C@H](O)[C@@H](C)[C@@H](O)[C@@H](C)[C@H](OC(C)=O)[C@@H]1C`, for which the survivor count is, setting by setting: (dose: 200.0 mg/kg/injection, schedule: Q04DX003 (ip), vehicle: other) 6 of 6; (dose: 400.0 mg/kg/injection, schedule: Q01DX009 (ip), vehicle: other) 2 of 6; (dose: 400.0 mg/kg/injection, schedule: Q04DX003 (ip), vehicle: distilled water + Tween-80) 3 of 6; (dose: 400.0 mg/kg/injection, schedule: Q04DX003 (ip), vehicle: other) 0 of 3 and 4 of 6.
For `COC(=O)/C(=C1/OC(=O)C(c2ccc(OC(C)=O)cc2)=C1O)c1ccc(Cl)cc1`, the survivor count (dose: 200.0 mg/kg/injection, schedule: Q01DX009 (ip), vehicle: saline + Tween-80 + alcohol) is listed as 2 of 6.
Consider `CNC(=S)ON1CCCCC1`, for which the T/C under setting [1] was 125 % of control. In addition, under “dose: 400.0 mg/kg/injection, schedule: Q01DX009 (ip), vehicle: saline with Tween-80”, the survivor count is 0 of 6.
As for `Cc1onc(-c2c(Cl)cccc2Cl)c1C(=O)SC1=NC(C)N2C(SC(=O)c3c(-c4c(Cl)cccc4Cl)noc3C)=NC(C)N12` (stereo unspecified), the survivor count (dose: 200.0 mg/kg/injection, schedule: Q01DX005 (ip), vehicle: saline with Tween-80) is 6 of 6.
In the case of `O=C(NO)C1NC1C(=O)NO` (stereo unspecified), the T/C (dose: 200.0 mg/kg/injection, schedule: Q01DX009 (ip), vehicle: water) is 128 % of control.
In the case of `Cc1ccc(N=Nc2c(-c3ccccc3)nn(C(=S)S)c2-c2ccccc2)cc1`, the survivor count is 5 of 5 (dose: 100.0 mg/kg/injection, schedule: Q04DX002 (ip), vehicle: Klucel (hydroxypropylcellulose) (HPC)) and 5 of 5 (dose: 400.0 mg/kg/injection, schedule: Q04DX002 (ip), vehicle: Klucel (hydroxypropylcellulose) (HPC)).
As to `CCCOc1cccc2c1C(=O)c1c(O)c3c(c(O)c1C2=O)C[C@@](O)(C(C)=O)C[C@@H]3OC1CC(N)C(O)C(C)O1` (stereo partly specified), the T/C (dose: 25.0 mg/kg/injection, schedule: Q04DX003 (ip), vehicle: water) was 142 % of control.
On to `CCCCC#CC(=O)O`, for which the survivor count under setting [7] is recorded as 0 of 6.
As to `O=C1C2CCCN2C(=O)C2([S-])CCCN12.O=C1C2CCCN2C(=O)C2([S-])CCCN12.[Zn+2]` (stereo unspecified), the T/C runs as follows: under setting [8], 95 % of control; under setting [9], 91, 98, 103 [4 of 6 alive], 107 % of control; under setting [10], 104, 115, 116 % of control; under setting [2], 91 [4 of 6 alive], 98, 111, 116, 120, 133 % of control. The survivor count runs as follows: under setting [8], 6 of 6; under setting [9], 5 of 6; under setting [10], 6 of 6; (dose: 100.0 mg/kg/injection, schedule: Q01DX009 (ip), vehicle: saline) 1 of 6; under setting [7], 0 of 6.
As to `O=C1c2ccccc2C(=O)N1Cc1ccccc1[N+](=O)[O-]`, the survivor count under setting [2] was 6 of 6.
Take `c1ccc(N=N/C(=N\Nc2ccccc2)SCCS/C(N=Nc2ccccc2)=N/Nc2ccccc2)cc1`: under setting [3], the survivor count was 3 of 6.
